PubChem BioAssay AID1487 (National Center for Advancing Translational Sciences (NCATS), 2009)
The other results are listed elsewhere or left out. Further columns of the screen follow, without active or inactive calls. Most of these compounds were active or inconclusive in the main read-out, so they are no random draw. The note in brackets gives the kind of curve behind each potency; many fits are weak.

Test: qHTS Assay for Modulators of Lamin A Splicing
Details: HeLa LMNA splicing GFP/RFP minigene ratio, 48 h
How it was run: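 S3 HeLa cells stably expressing lamin A-EGFP splicing minigene plus DsRed2, 600 cells/well, 48 h compound exposure at 37C. Laser-scanning cytometry; analysed as GFP (500-530 nm)/RFP (575-640 nm) total intensity ratio; 0.5% DMSO vehicle.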

[1] = measured here: GFP splicing reporter channel
[2] = measured here: RFP viability control channel

SMILES | AC50 [1] | AC50 [2]
C=C(C)COc1ccc(-c2n[nH]c(C)c2-c2ccccc2OC)c(O)c1 | 12.6 µM [rising, partial curve] | 14.1 µM [rising, partial curve]
Cc1ccc(-n2ncc(C(=O)NCCc3ccsc3)c2C2CCN(C(=O)OC(C)(C)C)CC2)c(C)c1 |  | 10 µM [rising, partial curve]
COC(=O)c1ccc(COc2cc([N+](=O)[O-])cc3cccnc23)o1 |  | 0.0891 µM [falling, full curve, poor fit]
Cc1cccc(S(=O)(=O)c2cn(Cc3ccc(F)cc3)c3cc(N4CCCCC4)c(F)cc3c2=O)c1 | 0.891 µM [rising, full curve, poor fit] | 3.98 µM [rising, single point]
O=C(OCc1ccccc1F)c1ccc2c(c1)-c1ccccc1C2=O |  | 17.8 µM [rising, single point]
O=C(Nc1ccc(S(=O)(=O)N2CCCC2)cc1)c1ccc2c(=O)n3c(nc2c1)CCCCC3 | 1.41 µM [rising, partial curve] | 2.82 µM [rising, partial curve]
Cc1cccn2c(=O)c3cc(C(=O)NC(C)C)n(C)c3nc12 |  | 7.94 µM [rising, partial curve, poor fit]
Cc1ccsc1C(=O)N(c1nc2ccccc2s1)c1c(C)cccc1C | 8.91 µM [rising, partial curve] | 
CCOC(=O)NC1(NCc2ccccc2)Oc2ccccc2O1 |  | 20 µM [rising, single point]
COC(=O)c1cn(C(=O)/C=C/c2ccc(OC)c(OC)c2)c2ccccc12 | 7.08 µM [falling, full curve] | 7.94 µM [falling, partial curve]
CC(C)(C)c1csc(N/N=C/c2cccnc2)n1 | 20 µM [falling, partial curve, poor fit] | 
Cc1nn2c(=O)cc(COC(=O)c3ccc(NC(=O)CCc4ccccc4)cc3)nc2s1 |  | 1.58 µM [rising, partial curve]
Cc1ccc(NC(=O)c2cc(S(=O)(=O)N3CCCCC3)cs2)cc1 |  | 10 µM [rising, partial curve]
CCOc1ccc(-c2cn(-c3ccc(OC)cc3)c(SC)n2)cc1 |  | 31.6 µM [rising, single point]
O=c1c(Cl)c(NCCCO)cnn1-c1nc2ccccc2[nH]1 | 35.5 µM [falling, single point] | 12.6 µM [falling, partial curve]
CCn1cc(C(=O)OCC(=O)c2cc(C)n(-c3ccccc3F)c2C)c(=O)c2ccc(C)nc21 | 11.2 µM [rising, single point] | 31.6 µM [rising, single point]
COc1cc2c(C(=O)N3CCN(c4cccc(Cl)c4)CC3)cn(C)c(=O)c2cc1OC |  | 5.62 µM [rising, single point]
CCOC(=O)c1cnn(-c2ccccc2)c1-n1cccc1C(=O)C(=O)N(C)C |  | 0.00316 µM [rising, full curve, poor fit]

SMILES | AC50 [1] | AC50 [2]
O=C(Nc1cccc(Br)c1)Nc1nc2c(s1)CCCCCC2 | 22.4 µM [falling, partial curve] | 25.1 µM [falling, single point]
CN(C)c1ccc(C(=O)Nc2sc(Nc3ccccc3)nc2C(N)=O)cc1 | 4.47 µM [falling, partial curve] | 22.4 µM [falling, partial curve]
O=S(=O)(NC1CCCCCC1)c1cccc2cccnc12 |  | 17.8 µM [rising, single point]
COc1ccc(S(=O)(=O)NCc2ccc(C(=O)N3CCc4ccccc4C3)cc2)cc1 |  | 35.5 µM [rising, single point]
CCSc1nc(N)c2c3c(sc2n1)CN(C)CC3 |  | 3.98 µM [rising, single point]
COC(=O)c1ccc(-n2c(C)cc(C(=O)CSc3ccc(NC(C)=O)cc3)c2C)cc1 | 35.5 µM [rising, single point] | 
COc1ccc2[nH]cc(CCNc3nc(-c4cccc(C#N)c4)nc4ccccc34)c2c1 | 22.4 µM [falling, single point] | 31.6 µM [falling, single point]
CC(=O)Oc1cc2c(cc1Cl)C(c1cccs1)CC1(CC(C)(C)NC(=S)N1)O2 (centres undefined) | 35.5 µM [rising, single point] | 
O=C(OCC(=O)N1CCN(Cc2ccccc2)CC1)c1ccc(Cl)cc1 |  | 0.562 µM [rising, single point]
NC(N)=Nc1cc2ccccc2c2ccccc12 | 11.2 µM [falling, partial curve, poor fit] | 
COc1ccc(CSc2nc(C)cc(=O)[nH]2)cc1 | 8.91 µM [rising, partial curve] | 7.08 µM [rising, partial curve]
O=C(CCl)NNC(=O)c1c(O)c2ccccc2[nH]c1=O | 5.62 µM [rising, partial curve, poor fit] | 
COc1ccc(Cn2c(SCc3ccc(C(=O)NC4CCCCC4)cc3)nc3cccnc32)cc1 | 35.5 µM [falling, single point] | 35.5 µM [falling, single point]
O=S(=O)(c1ccccc1F)N(Cc1ccco1)Cc1nnc(-c2ccccc2Br)o1 |  | 35.5 µM [rising, single point]
CC1CCc2c(N3CCC(O)CC3)c(F)cc3c(=O)c(C(=O)O)cn1c23 (centres undefined) | 22.4 µM [falling, single point] | 
O=C(Cn1c2[n+](c3ccc(C(F)(F)F)cc31)CCCCC2)Nc1ccccc1 | 0.00501 µM [falling, full curve, poor fit] | 0.00501 µM [falling, full curve, poor fit]
COc1ccc2c(c1)CCCC21SC(NC(C)=O)=NN1C(C)=O (centres undefined) |  | 10 µM [rising, partial curve]
CCC(CC)C(=O)Nc1ccc(C(=O)OCc2cc(=O)n3nc(C4CC4)sc3n2)cc1 | 3.98 µM [falling, full curve, poor fit] | 10 µM [rising, partial curve]
